Data reported in patent US20250223358A1.
No constants are given. Whether binding was seen depends on the method and setting. Some entries that bind do so weakly or less than the wild type.

Sequences of proteins named here, by UniProt entry; tags and fusion partners are left off. A change or cut given only in a name is not applied to a line headed by its entry.
UniProt P07766: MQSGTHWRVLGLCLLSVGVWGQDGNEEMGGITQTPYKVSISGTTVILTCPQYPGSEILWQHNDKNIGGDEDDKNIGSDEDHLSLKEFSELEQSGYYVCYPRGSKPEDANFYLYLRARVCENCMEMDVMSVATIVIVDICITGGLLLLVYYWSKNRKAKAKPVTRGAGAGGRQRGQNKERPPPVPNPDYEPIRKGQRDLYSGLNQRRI
UniProt P04234: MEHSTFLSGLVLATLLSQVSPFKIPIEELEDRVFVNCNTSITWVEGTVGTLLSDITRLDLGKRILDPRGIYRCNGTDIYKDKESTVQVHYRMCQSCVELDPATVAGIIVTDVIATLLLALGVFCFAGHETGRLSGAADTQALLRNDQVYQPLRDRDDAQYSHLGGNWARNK
UniProt P09693: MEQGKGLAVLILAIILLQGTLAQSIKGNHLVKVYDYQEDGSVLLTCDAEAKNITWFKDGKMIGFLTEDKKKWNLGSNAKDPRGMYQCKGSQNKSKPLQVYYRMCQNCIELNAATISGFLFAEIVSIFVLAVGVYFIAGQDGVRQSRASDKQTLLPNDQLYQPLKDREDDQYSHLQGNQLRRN

B1: hu40E9-L2H3-D99E.H (antibody, V domains shown)
VH: EVQLVQSGAEVKKPGSSVKVSCKASGYTFSSYVIHWVRQAPGQGLEWMGYINPYNDVIKYNEKFKGRVTLTSDKSTSTAYMELSSLRSEDTAVYYCARESYYSYDGFAYWGQGTLVTVSS
VL: EIVLTQSPDFQSVTPKEKVTITCSASSSVSYMHWYQQKPDQSPKRLIYDTSKLASGVPSRFSGSGSGTDFTLTINSLEAEDAATYYCQQWSSNPPTFGGGTKVEIK
B2: hu40E9-L2H3-S91R.L (antibody, V domains shown)
VH: EVQLVQSGAEVKKPGSSVKVSCKASGYTFSSYVIHWVRQAPGQGLEWMGYINPYNDVIKYNEKFKGRVTLTSDKSTSTAYMELSSLRSEDTAVYYCARDSYYSYDGFAYWGQGTLVTVSS
VL: EIVLTQSPDFQSVTPKEKVTITCSASSSVSYMHWYQQKPDQSPKRLIYDTSKLASGVPSRFSGSGSGTDFTLTINSLEAEDAATYYCQQWRSNPPTFGGGTKVEIK
B3: hu40E9-L2H3-D56G.H (antibody, V domains shown)
VH: EVQLVQSGAEVKKPGSSVKVSCKASGYTFSSYVIHWVRQAPGQGLEWMGYINPYNGVIKYNEKFKGRVTLTSDKSTSTAYMELSSLRSEDTAVYYCARDSYYSYDGFAYWGQGTLVTVSS
VL: EIVLTQSPDFQSVTPKEKVTITCSASSSVSYMHWYQQKPDQSPKRLIYDTSKLASGVPSRFSGSGSGTDFTLTINSLEAEDAATYYCQQWSSNPPTFGGGTKVEIK
B4: hu40E9-L2H3-Y102S.H (antibody, V domains shown)
VH: EVQLVQSGAEVKKPGSSVKVSCKASGYTFSSYVIHWVRQAPGQGLEWMGYINPYNDVIKYNEKFKGRVTLTSDKSTSTAYMELSSLRSEDTAVYYCARDSYSSYDGFAYWGQGTLVTVSS
VL: EIVLTQSPDFQSVTPKEKVTITCSASSSVSYMHWYQQKPDQSPKRLIYDTSKLASGVPSRFSGSGSGTDFTLTINSLEAEDAATYYCQQWSSNPPTFGGGTKVEIK
B5: hu40E9-L3H4 (antibody, V domains shown)
VH: EVQLVQSGAEVKKPGSSVKVSCKASGYTFSSYVIHWVRQAPGQGLEWIGYINPYNDVIKYNEKFKGRATLTSDKSTSTAYMELSSLRSEDTAVYYCARDSYYSYDGFAYWGQGTLVTVSS
VL: EIVLTQSPDFQSVTPKEKVTITCSASSSVSYMHWYQQKPDQSPKRWIYDTSKLASGVPSRFSGSGSGTDYTLTINSLEAEDAATYYCQQWSSNPPTFGGGTKVEIK
B6: hu40E9-L2H3-N93W.L (antibody, V domains shown)
VH: EVQLVQSGAEVKKPGSSVKVSCKASGYTFSSYVIHWVRQAPGQGLEWMGYINPYNDVIKYNEKFKGRVTLTSDKSTSTAYMELSSLRSEDTAVYYCARDSYYSYDGFAYWGQGTLVTVSS
VL: EIVLTQSPDFQSVTPKEKVTITCSASSSVSYMHWYQQKPDQSPKRLIYDTSKLASGVPSRFSGSGSGTDFTLTINSLEAEDAATYYCQQWSSWPPTFGGGTKVEIK
B7: hu40E9-L2H3-Y54G.H (antibody, V domains shown)
VH: EVQLVQSGAEVKKPGSSVKVSCKASGYTFSSYVIHWVRQAPGQGLEWMGYINPGNDVIKYNEKFKGRVTLTSDKSTSTAYMELSSLRSEDTAVYYCARDSYYSYDGFAYWGQGTLVTVSS
VL: EIVLTQSPDFQSVTPKEKVTITCSASSSVSYMHWYQQKPDQSPKRLIYDTSKLASGVPSRFSGSGSGTDFTLTINSLEAEDAATYYCQQWSSNPPTFGGGTKVEIK
B8: hu40E9-L2H3-N55S.H (antibody, V domains shown)
VH: EVQLVQSGAEVKKPGSSVKVSCKASGYTFSSYVIHWVRQAPGQGLEWMGYINPYSDVIKYNEKFKGRVTLTSDKSTSTAYMELSSLRSEDTAVYYCARDSYYSYDGFAYWGQGTLVTVSS
VL: EIVLTQSPDFQSVTPKEKVTITCSASSSVSYMHWYQQKPDQSPKRLIYDTSKLASGVPSRFSGSGSGTDFTLTINSLEAEDAATYYCQQWSSNPPTFGGGTKVEIK
B9: hu40E9-L3H2 (antibody, V domains shown)
VH: EVQLVQSGAEVKKPGSSVKVSCKASGYTFSSYVIHWVRQAPGQGLEWMGYINPYNDVIKYNEKFKGRVTITADKSTSTAYMELSSLRSEDTAVYYCARDSYYSYDGFAYWGQGTLVTVSS
VL: EIVLTQSPDFQSVTPKEKVTITCSASSSVSYMHWYQQKPDQSPKRWIYDTSKLASGVPSRFSGSGSGTDYTLTINSLEAEDAATYYCQQWSSNPPTFGGGTKVEIK
B10: hu40E9-L2H3-D105R.H (antibody, V domains shown)
VH: EVQLVQSGAEVKKPGSSVKVSCKASGYTFSSYVIHWVRQAPGQGLEWMGYINPYNDVIKYNEKFKGRVTLTSDKSTSTAYMELSSLRSEDTAVYYCARDSYYSYRGFAYWGQGTLVTVSS
VL: EIVLTQSPDFQSVTPKEKVTITCSASSSVSYMHWYQQKPDQSPKRLIYDTSKLASGVPSRFSGSGSGTDFTLTINSLEAEDAATYYCQQWSSNPPTFGGGTKVEIK
B11: hu40E9-L2H3-N93S.L (antibody, V domains shown)
VH: EVQLVQSGAEVKKPGSSVKVSCKASGYTFSSYVIHWVRQAPGQGLEWMGYINPYNDVIKYNEKFKGRVTLTSDKSTSTAYMELSSLRSEDTAVYYCARDSYYSYDGFAYWGQGTLVTVSS
VL: EIVLTQSPDFQSVTPKEKVTITCSASSSVSYMHWYQQKPDQSPKRLIYDTSKLASGVPSRFSGSGSGTDFTLTINSLEAEDAATYYCQQWSSSPPTFGGGTKVEIK
B12: hu40E9-L2H3-N93R.L (antibody, V domains shown)
VH: EVQLVQSGAEVKKPGSSVKVSCKASGYTFSSYVIHWVRQAPGQGLEWMGYINPYNDVIKYNEKFKGRVTLTSDKSTSTAYMELSSLRSEDTAVYYCARDSYYSYDGFAYWGQGTLVTVSS
VL: EIVLTQSPDFQSVTPKEKVTITCSASSSVSYMHWYQQKPDQSPKRLIYDTSKLASGVPSRFSGSGSGTDFTLTINSLEAEDAATYYCQQWSSRPPTFGGGTKVEIK
B13: hu40E9-L2H3-Y101F.H (antibody, V domains shown)
VH: EVQLVQSGAEVKKPGSSVKVSCKASGYTFSSYVIHWVRQAPGQGLEWMGYINPYNDVIKYNEKFKGRVTLTSDKSTSTAYMELSSLRSEDTAVYYCARDSFYSYDGFAYWGQGTLVTVSS
VL: EIVLTQSPDFQSVTPKEKVTITCSASSSVSYMHWYQQKPDQSPKRLIYDTSKLASGVPSRFSGSGSGTDFTLTINSLEAEDAATYYCQQWSSNPPTFGGGTKVEIK
B14: hu40E9-L2H3 (antibody, V domains shown)
VH: EVQLVQSGAEVKKPGSSVKVSCKASGYTFSSYVIHWVRQAPGQGLEWMGYINPYNDVIKYNEKFKGRVTLTSDKSTSTAYMELSSLRSEDTAVYYCARDSYYSYDGFAYWGQGTLVTVSS
VL: EIVLTQSPDFQSVTPKEKVTITCSASSSVSYMHWYQQKPDQSPKRLIYDTSKLASGVPSRFSGSGSGTDFTLTINSLEAEDAATYYCQQWSSNPPTFGGGTKVEIK
B15: hu40E9-L2H1 (antibody, V domains shown)
VH: EVQLVQSGAEVKKPGSSVKVSCKASGGTFSSYVIHWVRQAPGQGLEWMGYINPYNDVIKYNEKFKGRVTITADKSTSTAYMELSSLRSEDTAVYYCARDSYYSYDGFAYWGQGTLVTVSS
VL: EIVLTQSPDFQSVTPKEKVTITCSASSSVSYMHWYQQKPDQSPKRLIYDTSKLASGVPSRFSGSGSGTDFTLTINSLEAEDAATYYCQQWSSNPPTFGGGTKVEIK
B16: hu40E9-L3H1 (antibody, V domains shown)
VH: EVQLVQSGAEVKKPGSSVKVSCKASGGTFSSYVIHWVRQAPGQGLEWMGYINPYNDVIKYNEKFKGRVTITADKSTSTAYMELSSLRSEDTAVYYCARDSYYSYDGFAYWGQGTLVTVSS
VL: EIVLTQSPDFQSVTPKEKVTITCSASSSVSYMHWYQQKPDQSPKRWIYDTSKLASGVPSRFSGSGSGTDYTLTINSLEAEDAATYYCQQWSSNPPTFGGGTKVEIK
B17: hu40E9-L2H2 (antibody, V domains shown)
VH: EVQLVQSGAEVKKPGSSVKVSCKASGYTFSSYVIHWVRQAPGQGLEWMGYINPYNDVIKYNEKFKGRVTITADKSTSTAYMELSSLRSEDTAVYYCARDSYYSYDGFAYWGQGTLVTVSS
VL: EIVLTQSPDFQSVTPKEKVTITCSASSSVSYMHWYQQKPDQSPKRLIYDTSKLASGVPSRFSGSGSGTDFTLTINSLEAEDAATYYCQQWSSNPPTFGGGTKVEIK
B18: hu40E9-L2H4 (antibody, V domains shown)
VH: EVQLVQSGAEVKKPGSSVKVSCKASGYTFSSYVIHWVRQAPGQGLEWIGYINPYNDVIKYNEKFKGRATLTSDKSTSTAYMELSSLRSEDTAVYYCARDSYYSYDGFAYWGQGTLVTVSS
VL: EIVLTQSPDFQSVTPKEKVTITCSASSSVSYMHWYQQKPDQSPKRLIYDTSKLASGVPSRFSGSGSGTDFTLTINSLEAEDAATYYCQQWSSNPPTFGGGTKVEIK
B19: hu40E9-L2H3-D105E.H (antibody, V domains shown)
VH: EVQLVQSGAEVKKPGSSVKVSCKASGYTFSSYVIHWVRQAPGQGLEWMGYINPYNDVIKYNEKFKGRVTLTSDKSTSTAYMELSSLRSEDTAVYYCARDSYYSYEGFAYWGQGTLVTVSS
VL: EIVLTQSPDFQSVTPKEKVTITCSASSSVSYMHWYQQKPDQSPKRLIYDTSKLASGVPSRFSGSGSGTDFTLTINSLEAEDAATYYCQQWSSNPPTFGGGTKVEIK
B20: hu40E9-L2H3-G106A.H (antibody, V domains shown)
VH: EVQLVQSGAEVKKPGSSVKVSCKASGYTFSSYVIHWVRQAPGQGLEWMGYINPYNDVIKYNEKFKGRVTLTSDKSTSTAYMELSSLRSEDTAVYYCARDSYYSYDAFAYWGQGTLVTVSS
VL: EIVLTQSPDFQSVTPKEKVTITCSASSSVSYMHWYQQKPDQSPKRLIYDTSKLASGVPSRFSGSGSGTDFTLTINSLEAEDAATYYCQQWSSNPPTFGGGTKVEIK
B21: hu40E9-L2H5 (antibody, V domains shown)
VH: EVQLVQSGAEVKKPGSSVKVSCKASGYTFSSYVIHWVRQAPGQGLEWMGYINPGSGVIKYNEKFKGRVTLTSDKSTSTAYMELSSLRSEDTAVYYCARDSYYSYDGFAYWGQGTLVTVSS
VL: EIVLTQSPDFQSVTPKEKVTITCSASSSVSYMHWYQQKPDQSPKRLIYDTSKLASGVPSRFSGSGSGTDFTLTINSLEAEDAATYYCQQWSSNPPTFGGGTKVEIK
B22: hu40E9-L2H14 (antibody, V domains shown)
VH: EVQLVQSGAEVKKPGSSVKVSCKASGYTFSSYVIHWVRQAPGQGLEWMGYINPYNDVIKYNEKFKGRVTLTSDKSTSTAYMELSSLRSEDTAVYYCARESYYSYDGFAYWGQGTLVTVSS
VL: EIVLTQSPDFQSVTPKEKVTITCSASSSVSYMHWYQQKPDQSPKRLIYDTSKLASGVPSRFSGSGSGTDFTLTINSLEAEDAATYYCQQWSSNPPTFGGGTKVEIK

Target: human CD3 (human) (UniProt P07766+P04234+P09693)
Test: FACS on Jurkat cells

Binder	binding
B1	binds
B2	binds
B3	binds
B4	binds
B5	binds
B6	binds
B7	binds
B8	binds
B9	binds
B10	binds
B11	binds
B12	binds
B13	binds
B14	binds
B15	binds
B16	binds
B17	binds
B18	binds
B19	binds
B20	binds
B21	binds
B22	binds
